According to doi:10.1101/2020.09.01.277764:
Substitutions are numbered along the chain they refer to. No constants are given. Whether binding was seen depends on the method and setting. For part of these data: In cells and extracts the contact can be indirect. Some binding calls cover weakened binding; strength is not graded here. For part of these data: Tags and fused reporters may be left off the sequences shown. Blank lines part the entries; values can stand above or below the molecule they belong to.

By UniProt entry, the sequences of proteins in these tests, tags left out.
UniProt Q676U5: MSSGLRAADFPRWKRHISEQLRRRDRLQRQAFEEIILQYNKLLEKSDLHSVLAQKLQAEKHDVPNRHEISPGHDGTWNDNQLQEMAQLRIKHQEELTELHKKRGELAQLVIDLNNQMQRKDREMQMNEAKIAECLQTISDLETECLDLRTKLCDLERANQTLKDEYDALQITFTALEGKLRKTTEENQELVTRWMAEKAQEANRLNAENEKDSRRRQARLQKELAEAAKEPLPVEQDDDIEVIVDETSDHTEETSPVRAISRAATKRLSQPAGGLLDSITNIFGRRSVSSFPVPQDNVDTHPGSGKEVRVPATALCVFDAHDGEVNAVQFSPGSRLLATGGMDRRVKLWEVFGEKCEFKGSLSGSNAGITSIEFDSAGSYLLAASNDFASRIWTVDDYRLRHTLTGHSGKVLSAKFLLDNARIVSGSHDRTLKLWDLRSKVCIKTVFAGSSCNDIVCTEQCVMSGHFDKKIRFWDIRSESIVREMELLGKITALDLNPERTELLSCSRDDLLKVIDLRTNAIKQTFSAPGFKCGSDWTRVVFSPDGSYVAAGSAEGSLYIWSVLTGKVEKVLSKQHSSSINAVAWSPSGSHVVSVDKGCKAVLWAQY

Tests used:
[1] = target: T1, myc-tagged Rabaptin5 triple-alanine mutant (Y507A/W515A/L518A) (human) (UniProt Q15276); experiment: co-IP
T1 sequence: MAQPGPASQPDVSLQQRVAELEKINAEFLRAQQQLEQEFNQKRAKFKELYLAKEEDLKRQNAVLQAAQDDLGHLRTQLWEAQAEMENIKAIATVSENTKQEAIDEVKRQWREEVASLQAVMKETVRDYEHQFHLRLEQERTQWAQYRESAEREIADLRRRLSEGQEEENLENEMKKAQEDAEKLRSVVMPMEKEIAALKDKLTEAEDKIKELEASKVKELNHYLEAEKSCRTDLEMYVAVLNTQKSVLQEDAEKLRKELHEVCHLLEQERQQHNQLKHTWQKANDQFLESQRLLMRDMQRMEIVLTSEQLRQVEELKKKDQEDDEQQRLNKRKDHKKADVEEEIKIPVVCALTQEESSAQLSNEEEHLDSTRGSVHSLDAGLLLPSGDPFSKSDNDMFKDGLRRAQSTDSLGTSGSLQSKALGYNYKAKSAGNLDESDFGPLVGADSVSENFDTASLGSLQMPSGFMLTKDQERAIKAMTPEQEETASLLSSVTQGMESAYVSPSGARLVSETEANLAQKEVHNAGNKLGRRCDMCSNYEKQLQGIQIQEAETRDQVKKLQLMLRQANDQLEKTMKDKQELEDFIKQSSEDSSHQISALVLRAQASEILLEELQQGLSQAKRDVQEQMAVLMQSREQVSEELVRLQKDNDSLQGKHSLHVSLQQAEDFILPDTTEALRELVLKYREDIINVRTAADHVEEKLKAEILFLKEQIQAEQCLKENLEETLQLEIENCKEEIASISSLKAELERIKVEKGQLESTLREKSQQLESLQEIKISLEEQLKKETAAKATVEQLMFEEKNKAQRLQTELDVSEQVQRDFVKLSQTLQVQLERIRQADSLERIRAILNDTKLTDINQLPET

[2] = target: T2, human Rabaptin5 (1–862) fused to LexA (human) (UniProt Q15276); experiment: two-hybrid
T2 sequence: T1 sequence with A507Y, A515W, A518L

[3] = target: full-length FIP200-mCherry (human) (UniProt Q8TDY2); experiment: co-IP
[4] = target: FIP200 (endogenous) (human (endogenous in HeLa and HEK293A)) (UniProt Q8TDY2); experiment: co-IP
[5] = target: T3, Rabaptin5 coiled-coil domain CC2-1 (residues 547–666) fused to LexA (human) (UniProt Q15276); experiment: two-hybrid
T3 sequence: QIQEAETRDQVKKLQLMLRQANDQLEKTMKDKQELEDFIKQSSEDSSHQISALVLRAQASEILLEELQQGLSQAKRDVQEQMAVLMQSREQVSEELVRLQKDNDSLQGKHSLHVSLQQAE

Molecule: ATG16L1 (endogenous) (from UniProt Q676U5 1-607)
binding [1]: no binding

B1: FIP200 residues 281–439 (smallest interacting prey fragment of the screen) (domain or fragment, UniProt Q8TDY2 281-439)
chain: SCQSTVHQQDETTIDTKDGDLPFFNVSLLDWINVQDRPNDVESLVRKCFDSMSRLDPRIIRPFIAECRQTIAKLDNQNMKAIKGLEDRLYALDQMIASCGRLVNEQKELAQGFLANQKRAENLKDASVLPDLCLSHANQLMIMLQNHRKLLDIKQKCTT
binding [2]: binds

B4: FIP200 residues 257–444 fused to the Gal4 activation domain (domain or fragment, UniProt Q8TDY2 257-444)
chain: SFPKSVEHVSPDTADAESGKEIRESCQSTVHQQDETTIDTKDGDLPFFNVSLLDWINVQDRPNDVESLVRKCFDSMSRLDPRIIRPFIAECRQTIAKLDNQNMKAIKGLEDRLYALDQMIASCGRLVNEQKELAQGFLANQKRAENLKDASVLPDLCLSHANQLMIMLQNHRKLLDIKQKCTTAKQEL
binding [5]: binds

Results, then the molecule that gave them:

binding [2]: binds
B2: human Rabaptin5 (1–862) fused to LexA (protein, UniProt Q15276 1-862)
chain: T1 sequence with A507Y, A515W, A518L

binding [3]: binds | binding [4]: binds
B3: Rabaptin5 (endogenous) (protein, UniProt Q15276 1-862)
chain: T1 sequence with A507Y, A515W, A518L
